These are yes or no findings as the source states them, for the method shown. Some binding calls cover weakened binding; strength is not graded here.
Assays:
[1] = biological target: rhesus CD19 on cells (CD20+ B cells of rhesus PBMC) (rhesus) (UniProt F7F486); assay: flow cytometry, gMFI of labelled antibody on CD20+ gated lymphocytes of rhesus PBMC
[2] = biological target: rhesus CD19 on cells (CD20+ B cells of rhesus PBMC) (rhesus) (UniProt F7F486); assay: flow cytometry on PBMC, CD20+ B cells gated
[3] = biological target: rhesus CD19 on cells (CD20+ B cells of rhesus PBMC) (rhesus) (UniProt F7F486); assay: flow cytometry, APC channel histograms of labelled antibody on CD20+ gated lymphocytes of rhesus PBMC

| Binder | binding [1] | binding [2] | binding [3] |
| --- | --- | --- | --- |
| SI-63C2 (recombinant mAb with H1 humanized anti-CD19 variable sequence) (antibody, V domains shown) VH: QVTLKESGPGLVQPGQTLRLTCAFSGFSLSTSGMGVGWIRQPPGKGLEWLAHIWWDDDKRYNPALKSRLTISKDTSKNQVYLQMNSLDAEDTAVYYCARMELWSYYFDYWGQGTLVTVSS VL: ENVLTQSPASLSASPGERVTITCSASSSVSYMHWYQQKPGQAPKLWIYDTSKLASGVPSRFSGSGSGNDHTLTISSMEPEDFATYYCFQGSVYPFTFGQGTKLEIKR | binds | binds | binds |
| SI-63C1 (recombinant chimeric mAb with BU12 mouse parental anti-CD19 variable sequence) (antibody, V domains shown) VH: QVTLKESGPGILQPSQTLSLTCSFSGFSLSTSGMGVGWIRQPSGKGLEWLAHIWWDDDKRYNPALKSRLTISKDTSSNQVFLKIASVDTADTAAYYCARMELWSYYFDYWGQGTTLTVSS VL: ENVLTQSPAIMSASPGEKVTMTCSASSSVSYMHWYQQKSSTSPKLWIYDTSKLASGVPGRFSGSGSGNSHFLTISSMEAEDVATYYCFQGSVYPFTFGSGTKLEIKR | binds | binds | – |

Reference: US20230086069A1
